Record: PubChem BioAssay AID1259308 (NCATS, 2017)
Assay: 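Genes whose loss raises luciferase production in HEK293 cells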 (primary screen). Cell system: human HEK293 embryonic kidney cells stably expressing firefly luciferase (HEK-CMV-Luc2-Hygro). Reagents: single siRNA against human genes, 0.8 pmol siRNA per well. Duration: 72 h. Measurement: 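Reporter luminescence and viable-cell signal on separate replicate plates, given as percent of non-targeting control and median/MAD z-scores, plus per-cell luciferase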. Reading the numbers: total luciferase, z-score and total luciferase, % of control: higher = more reporter protein produced. Hit rule: 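Active when the median/MAD z-score for overall luciferase is greater than 3; a gene was taken forward for validation with new siRNAs if at least two of its three siRNAs passed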. Meaning of the calls: active = raised luciferase; inactive = no rise.
This is one part, drawn at random, of about 59,000 reagents tested. About 1,510 of all reagents (2.6%) were called active. 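Calls use total luciferase alone and ignore viability, so some active siRNAs may act by altering cell number.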 A number with no mark means an inactive call. The numbers tell different reagents against one gene apart. Not all columns of the deposit are shown. No sequences are given here.

Target gene | reagent no. | total luciferase, z-score | total luciferase, % of control
KATNIP (katanin interacting protein) | 1 | 0.829 | 98.4
KATNIP (katanin interacting protein) | 2 | -0.15 | 78.9
KATNIP (katanin interacting protein) | 3 | -0.93 | 63.4
LSM7 | 1 | 0.555 | 92.9
LSM7 | 2 | 2.25 | 127
LSM7 | 3 | 1.01 | 102
MACIR (macrophage immunometabolism regulator) | 1 | -0.0871 | 80.2
MACIR (macrophage immunometabolism regulator) | 2 | 0.195 | 85.8
MACIR (macrophage immunometabolism regulator) | 3 | 0.802 | 97.8
CNGA4 (cyclic nucleotide gated channel subunit alpha 4) | 1 | 0.0841 | 83.6
CNGA4 (cyclic nucleotide gated channel subunit alpha 4) | 2 | -1.82 | 45.8
CNGA4 (cyclic nucleotide gated channel subunit alpha 4) | 3 | -0.145 | 79
CAP1 (cyclase associated actin cytoskeleton regulatory protein 1) | 1 | -0.831 | 65.4
CAP1 (cyclase associated actin cytoskeleton regulatory protein 1) | 2 | -1.92 | 43.7
CAP1 (cyclase associated actin cytoskeleton regulatory protein 1) | 3 | -0.318 | 75.6
PACS1 (phosphofurin acidic cluster sorting protein 1) | 1 | 1.48 | 111
PACS1 (phosphofurin acidic cluster sorting protein 1) | 2 | -0.0643 | 80.6
PACS1 (phosphofurin acidic cluster sorting protein 1) | 3 | 0.298 | 87.8
CUEDC1 (CUE domain containing 1) | 1 | -1.71 | 47.8
CUEDC1 (CUE domain containing 1) | 2 | -1.18 | 58.4
CUEDC1 (CUE domain containing 1) | 3 | -0.149 | 78.9
PSMA6P2 (proteasome subunit alpha 6 pseudogene 2) | 1 | -0.83 | 65.4
PSMA6P2 (proteasome subunit alpha 6 pseudogene 2) | 2 | -0.295 | 76
PSMA6P2 (proteasome subunit alpha 6 pseudogene 2) | 3 | -0.297 | 76

Reformatted: 3 of the entries above
Target gene,reagent no.,"total luciferase, z-score","total luciferase, % of control"
CUEDC1 (CUE domain containing 1),2,-1.18,58.4
CUEDC1 (CUE domain containing 1),3,-0.149,78.9
PSMA6P2 (proteasome subunit alpha 6 pseudogene 2),1,-0.83,65.4
